Results deposited as PubChem BioAssay AID504804 (Drosophila RNAi Screening Center, 2011)
In all, the deposit lists about 19,000 reagents; shown is an unselected part of those with a known target gene and a result. Of all reagents, 47 (0.25%) got an active call. 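Signals are raw, not normalised; exact z-scores behind calls not deposited; actives needed confirmation, so some wells reaching 2 SD are inactive.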

- Assay: 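Fly genes whose loss lessens doxorubicin-driven cell death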 (primary screen)
- Cells: Drosophila Kc cells
- Reagent: long dsRNA against Drosophila genes, 0.5 µg dsRNA per well
- Duration: 96 h (48 h knock-down, then 48 h drug)
- Treatment: doxorubicin 5 µg/ml for 48 h, added 48 h after dsRNA
- Measurement: 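Viability measured as cellular ATP by luminescence after 48 h knock-down then 48 h doxorubicin at 5 µg/ml; unnormalised plate counts for each replicate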
- Scale: raw ATP luminescence: higher = more viable cells, protection from doxorubicin
- Call rule: 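z-score of 2 or more over plate mean in both duplicates, retained only when retests and separate dsRNAs confirm the protection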

gene | amplicon | raw ATP luminescence, replicate 1 | raw ATP luminescence, replicate 2 | Outcome
CG12520 | DRSC09892 | 74903 | 81427 | inactive
Gart | DRSC03481 | 31590 | 37027 | inactive
Ir100a | DRSC14329 | 46090 | 59900 | inactive
Erk7 | DRSC18127 | 3.46e5 | 3.68e5 | inactive
Erk7 | DRSC18227 | 3.62e5 | 3.77e5 | inactive
CG8072 | DRSC10960 | 63637 | 55683 | inactive
Reck | DRSC10504 | 25903 | 16600 | inactive
Reck | DRSC10505 | 50620 | 46103 | inactive
Boh2 | DRSC02777 | 32567 | 64667 | inactive
CG40053 (retired record) | DRSC20833 | 2.34e5 | 2.54e5 | inactive
CG34241 | DRSC09157 | 1.94e5 | 1.86e5 | inactive
CG5805 | DRSC15878 | 43887 | 35133 | inactive
CG13403 | DRSC19535 | 3.74e5 | 3.38e5 | inactive
CG6168 | DRSC10596 | 70517 | 71187 | inactive
CG5516 | DRSC15826 | 1.00e5 | 75670 | inactive
Uxs | DRSC10941 | 30613 | 35633 | inactive
CG11474 | DRSC04112 | 87113 | 68757 | inactive
Obp83g | DRSC12269 | 67990 | 63823 | inactive
vanin-like | DRSC17440 | 1.64e5 | 1.78e5 | inactive
Cyp310a1 | DRSC03301 | 67803 | 54427 | inactive
Mt2 | DRSC03374 | 58087 | 66783 | inactive
Sil1 | DRSC14242 | 54157 | 54900 | inactive
Fas2 | DRSC17308 | 2.14e5 | 2.05e5 | inactive
Fas2 | DRSC17309 | 2.18e5 | 2.15e5 | inactive
CG11977 | DRSC14454 | 63013 | 63230 | inactive
eIF3h | DRSC01995 | 90473 | 48613 | inactive
PK2-R1 | DRSC16447 | 50750 | 51490 | inactive
sinah | DRSC09910 | 61163 | 42233 | inactive
SLC5A11 | DRSC03088 | 1.01e5 | 62770 | inactive
CG11664 | DRSC18650 | 52230 | 50710 | inactive
CG7148 | DRSC11802 | 20577 | 19363 | inactive
LanA | DRSC11207 | 36203 | 36370 | inactive
Zip48C | DRSC06314 | 52417 | 43397 | inactive
CG4612 | DRSC04478 | 64387 | 53827 | inactive
Vps24 | DRSC12332 | 28010 | 32533 | inactive
Bicra | DRSC14417 | 38370 | 27570 | inactive
CG12680 | DRSC17871 | 45220 | 57350 | inactive
CG8001 | DRSC08611 | 54123 | 52227 | inactive
Sox100B | DRSC15090 | 36270 | 31230 | inactive
Sox100B | DRSC16866 | 44600 | 29020 | inactive
hpo | DRSC06065 | 47633 | 54273 | inactive
RpL14 | DRSC11269 | 56217 | 66330 | inactive
Jhbp12 | DRSC14621 | 70340 | 61610 | inactive
CG5149 | DRSC02819 | 98393 | 71367 | inactive
CG10338 | DRSC02039 | 34370 | 21180 | inactive
Phm | DRSC04639 | 77773 | 94867 | inactive
CG6149 | DRSC10593 | 54340 | 55163 | inactive
CG18507 | DRSC01334 | 2.88e5 | 3.18e5 | inactive
CG18507 | DRSC01914 | 74300 | 1.06e5 | inactive
Pop2 | DRSC10537 | 39917 | 39890 | inactive
CSN8 | DRSC02257 | 1.20e5 | 75983 | inactive
Ino80 | DRSC14760 | 72800 | 81100 | inactive
Ino80 | DRSC15333 | 53900 | 73770 | inactive
Ino80 | DRSC15501 | 62080 | 62580 | inactive
ssh | DRSC16730 | 52950 | 46840 | inactive
CG33523 | DRSC09814 | 69217 | 76077 | inactive
EbpIII | DRSC04638 | 42023 | 50983 | inactive

8 neighbouring records already listed:
gene | amplicon | raw ATP luminescence, replicate 1 | raw ATP luminescence, replicate 2 | Outcome
eIF3h | DRSC01995 | 90473 | 48613 | inactive
PK2-R1 | DRSC16447 | 50750 | 51490 | inactive
sinah | DRSC09910 | 61163 | 42233 | inactive
SLC5A11 | DRSC03088 | 1.01e5 | 62770 | inactive
CG11664 | DRSC18650 | 52230 | 50710 | inactive
CG7148 | DRSC11802 | 20577 | 19363 | inactive
LanA | DRSC11207 | 36203 | 36370 | inactive
Zip48C | DRSC06314 | 52417 | 43397 | inactive
